According to publication PMC5758712:
Results are given in words; binding and its absence hold for the method and conditions named.

Protein sequences, listed by entry. Tags and fused reporters are not part of them. Lines headed by an entry give the natural chain unless they say otherwise; changes in a name come on top. Residues count along the entry.
UniProt Q9NWF9, residues 510-801: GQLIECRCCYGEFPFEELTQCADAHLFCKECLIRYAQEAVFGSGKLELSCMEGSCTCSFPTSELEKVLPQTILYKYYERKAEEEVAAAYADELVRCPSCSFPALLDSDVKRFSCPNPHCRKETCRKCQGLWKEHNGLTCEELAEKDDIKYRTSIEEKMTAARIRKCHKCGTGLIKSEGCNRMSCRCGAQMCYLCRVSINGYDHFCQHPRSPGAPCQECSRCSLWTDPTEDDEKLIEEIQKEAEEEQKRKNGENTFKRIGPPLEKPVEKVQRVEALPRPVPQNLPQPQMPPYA
UniProt P51668: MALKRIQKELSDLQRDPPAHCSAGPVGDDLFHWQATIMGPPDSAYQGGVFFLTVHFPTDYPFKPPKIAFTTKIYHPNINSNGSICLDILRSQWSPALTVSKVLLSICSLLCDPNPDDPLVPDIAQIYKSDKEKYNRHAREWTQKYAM

Tests used:
[1] = target: TRIAD3A-RBR (human) (UniProt Q9NWF9); experiment: SEC-SAXS; in-line SEC-SAXS, Bio-SEC 3 (Agilent) column, 25 mM Hepes pH 7.5, 150 mM NaCl, 0.5 mM TCEP, 25 °C; samples loaded at about 200 μM (HHARI samples 46–51 μM); both purified
[2] = target: UbcH5A (UniProt P51668); experiment: condition: 25–30 μM E2 in the cell, 250–300 μM RBR in the syringe; ITC; E2 or E2~Ub in the cell at 25–30 μM, RBR in the syringe at 250–300 μM; 293 K; 25 mM Hepes pH 7.5, 150 mM NaCl, 0.5 mM TCEP; 1:1 binding model; both purified

TRIAD3A-RBR (from UniProt Q9NWF9-2 510-801) (domain or fragment)
binding [1]: no binding (tested: 200 μM) | binding [2]: no binding
